{"source": "patent US20250257325A1", "about": "“SYSTEM AND COMPOSITION OF R[…] FOR P[…] VIRUSES AND METHODS THEREOF” (The University of Hong Kong, priority 2024, published 2025)", "key": {"HRV-C3": {"test_system": "HRV-C3", "test": "Antiviral inhibition in airway organoids infected with HRV-C3 (viral load by RT-qPCR)", "type": "cell-based, human rhinovirus C", "conditions": "human airway organoids, 1 μM Rupintrivir or 3 μM Itraconazole, 1000 viral gene copy/cell, compared with HRV-A", "protocol": "(§1) We then performed an antibody-blocking experiment in nasal organoids to assess the role of CDHR3 on HRV-C replication. We examined HRV-C replication in the nasal organoids in the presence of two a-CDHR3 antibodies or an isotypic IgG. […] Itraconazole^32, a repurposed antifungal drug with documented efficacy against rhinoviruses, was also tested.\n(§2) A total of 9 HRV-C positive archived nasopharyngeal specimens from clinical patients were used for the study. Mature human airway and nasal organoids growing on 24-transwell inserts were washed twice with the basal medium (Advanced DMEM/F-12 (Gibco) supplemented with 1% HEPES, 1% GlutaMAX, and 1% Penicillin/Streptomycin), followed by virus inoculation with the indicated viral gene copy and subsequent incubation in the PD medium (PneumaCult-ALI medium (STEMCELL Technologies) supplemented with 10 μM DAPT and 10 μM Y27632), at 37° C. for 4 h. After incubation, the airway or nasal organoids were washed 3 times with the basal medium to remove residual inoculum. The apical and basolateral chambers were replenished with 300 μl and 500 μl PD medium, respectively. As for CYT387 treatment, airway and nasal organoids were pre-incubated in the PD medium with 1 μg/ml CYT387 (Invivogen, inh-cy87) or DMSO overnight. […]"}, "HRV-A1": {"test_system": "HRV-A1", "test": "Antiviral inhibition in airway organoids infected with HRV-A1 (viral load by RT-qPCR)", "type": "cell-based, human rhinovirus A", "conditions": "human airway organoids, 1 μM Rupintrivir or 3 μM Itraconazole, 1000 viral gene copy/cell, compared with HRV-C", "protocol": "as §1, §2"}}, "note": "For at least one compound, name, drawing or mass did not settle the structure."}
{"smiles": "CCC(C)n1ncn(-c2ccc(N3CCN(c4ccc(OCC5COC(Cn6cncn6)(c6ccc(Cl)cc6Cl)O5)cc4)CC3)cc2)c1=O", "note": "(centres unmarked) [Itraconazole]", "values": [{"measurement": "inhibitory effect on HRV-C (relative viral load versus DMSO-treated organoids)", "setting": "HRV-C3", "value": "more prominent inhibitory effect"}, {"measurement": "inhibitory effect on HRV-A (relative viral load versus DMSO-treated organoids)", "setting": "HRV-A1", "value": "more prominent inhibitory effect of both drugs on HRV-C than HRV-A"}]}
